Test results reported in patent US20030162221A1.
No constants are given. Whether binding was seen depends on the method and setting. Binding seen in cells or lysates may run through a third protein. Some binding calls cover weakened binding; strength is not graded here. For part of these data: Sequences can lack the tags named with a protein.

The chains behind the UniProt entries cited, without tags or fusion partners. Residues count along the entry.
UniProt P00546, residues 2-298: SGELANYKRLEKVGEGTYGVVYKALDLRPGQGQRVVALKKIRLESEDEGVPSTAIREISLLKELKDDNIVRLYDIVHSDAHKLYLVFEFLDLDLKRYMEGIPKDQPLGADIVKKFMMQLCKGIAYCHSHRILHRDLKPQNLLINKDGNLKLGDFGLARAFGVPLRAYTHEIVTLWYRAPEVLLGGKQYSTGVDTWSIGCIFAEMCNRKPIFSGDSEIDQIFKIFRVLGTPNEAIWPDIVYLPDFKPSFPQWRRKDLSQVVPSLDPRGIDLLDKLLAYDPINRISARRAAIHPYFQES
UniProt P47035: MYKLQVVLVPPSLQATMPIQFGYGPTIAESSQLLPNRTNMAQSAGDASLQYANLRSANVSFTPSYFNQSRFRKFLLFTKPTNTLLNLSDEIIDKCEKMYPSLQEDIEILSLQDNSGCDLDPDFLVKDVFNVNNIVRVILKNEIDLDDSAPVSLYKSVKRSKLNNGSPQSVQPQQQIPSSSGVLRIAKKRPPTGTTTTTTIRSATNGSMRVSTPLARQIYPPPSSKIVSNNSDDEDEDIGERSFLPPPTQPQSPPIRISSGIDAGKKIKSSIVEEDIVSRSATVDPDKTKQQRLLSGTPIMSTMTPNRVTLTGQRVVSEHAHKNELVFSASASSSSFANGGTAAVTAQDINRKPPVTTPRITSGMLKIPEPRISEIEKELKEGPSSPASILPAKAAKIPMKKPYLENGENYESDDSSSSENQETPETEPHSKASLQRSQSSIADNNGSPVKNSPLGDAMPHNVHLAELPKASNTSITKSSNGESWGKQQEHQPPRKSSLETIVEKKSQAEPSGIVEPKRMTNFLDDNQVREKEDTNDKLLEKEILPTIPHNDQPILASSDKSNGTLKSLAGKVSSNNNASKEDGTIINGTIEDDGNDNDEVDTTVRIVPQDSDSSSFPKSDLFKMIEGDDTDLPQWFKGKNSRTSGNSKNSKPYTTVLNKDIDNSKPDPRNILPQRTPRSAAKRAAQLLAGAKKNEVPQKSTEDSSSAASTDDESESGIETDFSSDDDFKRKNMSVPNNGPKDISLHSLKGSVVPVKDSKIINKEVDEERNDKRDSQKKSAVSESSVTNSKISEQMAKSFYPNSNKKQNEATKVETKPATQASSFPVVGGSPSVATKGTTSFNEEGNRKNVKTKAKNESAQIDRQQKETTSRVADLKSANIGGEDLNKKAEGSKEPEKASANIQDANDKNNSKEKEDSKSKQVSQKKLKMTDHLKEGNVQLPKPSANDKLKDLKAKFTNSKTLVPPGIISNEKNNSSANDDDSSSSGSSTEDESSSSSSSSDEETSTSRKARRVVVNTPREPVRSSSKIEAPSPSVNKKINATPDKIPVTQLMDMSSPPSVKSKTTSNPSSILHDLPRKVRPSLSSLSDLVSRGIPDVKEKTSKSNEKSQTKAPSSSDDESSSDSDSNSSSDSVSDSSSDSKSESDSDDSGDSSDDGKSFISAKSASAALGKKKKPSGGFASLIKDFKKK
UniProt P22579: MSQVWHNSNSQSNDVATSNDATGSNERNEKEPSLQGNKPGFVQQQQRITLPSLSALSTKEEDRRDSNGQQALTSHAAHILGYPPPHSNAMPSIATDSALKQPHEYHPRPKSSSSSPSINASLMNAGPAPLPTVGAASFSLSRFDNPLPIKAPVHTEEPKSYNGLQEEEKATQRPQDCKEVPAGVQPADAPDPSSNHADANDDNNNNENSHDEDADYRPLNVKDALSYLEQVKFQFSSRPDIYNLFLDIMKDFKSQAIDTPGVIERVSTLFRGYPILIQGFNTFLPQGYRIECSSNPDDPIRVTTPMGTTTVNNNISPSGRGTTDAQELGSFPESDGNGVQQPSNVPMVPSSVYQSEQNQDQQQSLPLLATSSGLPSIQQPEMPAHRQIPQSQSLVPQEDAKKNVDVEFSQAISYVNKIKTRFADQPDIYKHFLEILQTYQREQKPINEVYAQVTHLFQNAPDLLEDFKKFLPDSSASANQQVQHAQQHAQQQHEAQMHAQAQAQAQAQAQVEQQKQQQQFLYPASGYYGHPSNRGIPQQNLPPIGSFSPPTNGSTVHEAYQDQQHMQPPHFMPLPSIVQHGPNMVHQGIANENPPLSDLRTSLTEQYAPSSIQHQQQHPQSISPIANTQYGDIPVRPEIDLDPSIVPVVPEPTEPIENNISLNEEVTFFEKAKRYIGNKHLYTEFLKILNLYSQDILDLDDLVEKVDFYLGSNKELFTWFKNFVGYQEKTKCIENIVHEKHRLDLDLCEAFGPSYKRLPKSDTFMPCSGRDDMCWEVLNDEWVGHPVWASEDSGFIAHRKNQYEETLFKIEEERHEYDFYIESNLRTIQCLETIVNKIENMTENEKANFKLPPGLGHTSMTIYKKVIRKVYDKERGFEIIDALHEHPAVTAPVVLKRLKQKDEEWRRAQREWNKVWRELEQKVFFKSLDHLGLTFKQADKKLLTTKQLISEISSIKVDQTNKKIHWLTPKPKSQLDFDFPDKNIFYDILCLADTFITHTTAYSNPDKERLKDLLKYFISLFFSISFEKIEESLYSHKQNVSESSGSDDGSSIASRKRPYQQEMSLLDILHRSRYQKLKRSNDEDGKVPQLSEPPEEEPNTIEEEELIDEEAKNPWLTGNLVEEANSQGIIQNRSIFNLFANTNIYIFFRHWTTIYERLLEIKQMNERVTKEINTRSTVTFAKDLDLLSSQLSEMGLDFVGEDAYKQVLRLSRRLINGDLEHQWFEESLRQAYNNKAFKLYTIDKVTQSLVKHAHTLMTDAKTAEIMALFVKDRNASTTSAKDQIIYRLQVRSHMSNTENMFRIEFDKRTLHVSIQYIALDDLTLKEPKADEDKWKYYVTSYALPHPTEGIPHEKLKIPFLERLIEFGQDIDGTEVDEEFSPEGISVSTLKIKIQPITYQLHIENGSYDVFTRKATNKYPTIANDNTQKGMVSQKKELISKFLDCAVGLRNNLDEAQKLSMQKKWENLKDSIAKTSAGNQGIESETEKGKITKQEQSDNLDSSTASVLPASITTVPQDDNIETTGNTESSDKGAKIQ

Legend:
Assay in all cases: anti-FLAG co-IP, LC-MS/MS
[1] = biological target: Cdc28 (Saccharomyces cerevisiae) (UniProt P00546)
[2] = biological target: T1, Fhl1 (Saccharomyces cerevisiae) (UniProt P39521)
T1 sequence (looked up): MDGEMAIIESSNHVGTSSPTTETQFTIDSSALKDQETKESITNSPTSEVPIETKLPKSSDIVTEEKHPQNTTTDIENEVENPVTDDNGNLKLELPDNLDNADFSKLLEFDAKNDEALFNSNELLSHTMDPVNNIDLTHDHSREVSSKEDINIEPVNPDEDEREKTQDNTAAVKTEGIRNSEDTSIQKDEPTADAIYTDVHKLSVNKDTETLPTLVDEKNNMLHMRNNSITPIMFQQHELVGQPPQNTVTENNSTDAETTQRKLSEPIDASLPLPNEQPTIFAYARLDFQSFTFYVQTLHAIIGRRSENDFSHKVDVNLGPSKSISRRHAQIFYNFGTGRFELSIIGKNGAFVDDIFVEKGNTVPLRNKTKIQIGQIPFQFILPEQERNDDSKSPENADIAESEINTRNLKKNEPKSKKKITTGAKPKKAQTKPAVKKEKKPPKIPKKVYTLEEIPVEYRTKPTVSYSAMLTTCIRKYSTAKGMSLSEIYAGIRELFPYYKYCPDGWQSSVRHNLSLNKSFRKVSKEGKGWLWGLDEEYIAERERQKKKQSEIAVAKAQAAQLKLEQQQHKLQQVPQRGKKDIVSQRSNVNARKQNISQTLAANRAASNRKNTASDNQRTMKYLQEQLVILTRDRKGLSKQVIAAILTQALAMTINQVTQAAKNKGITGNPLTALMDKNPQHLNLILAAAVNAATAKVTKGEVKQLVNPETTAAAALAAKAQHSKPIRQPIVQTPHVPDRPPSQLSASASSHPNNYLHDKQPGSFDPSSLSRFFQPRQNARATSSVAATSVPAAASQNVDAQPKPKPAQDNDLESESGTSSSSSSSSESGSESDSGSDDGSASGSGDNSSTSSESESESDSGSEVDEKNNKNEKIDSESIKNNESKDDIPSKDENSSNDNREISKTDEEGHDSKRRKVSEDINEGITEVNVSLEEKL

[3] = biological target: T2, Fkh2 (Saccharomyces cerevisiae) (UniProt P41813)
T2 sequence (looked up): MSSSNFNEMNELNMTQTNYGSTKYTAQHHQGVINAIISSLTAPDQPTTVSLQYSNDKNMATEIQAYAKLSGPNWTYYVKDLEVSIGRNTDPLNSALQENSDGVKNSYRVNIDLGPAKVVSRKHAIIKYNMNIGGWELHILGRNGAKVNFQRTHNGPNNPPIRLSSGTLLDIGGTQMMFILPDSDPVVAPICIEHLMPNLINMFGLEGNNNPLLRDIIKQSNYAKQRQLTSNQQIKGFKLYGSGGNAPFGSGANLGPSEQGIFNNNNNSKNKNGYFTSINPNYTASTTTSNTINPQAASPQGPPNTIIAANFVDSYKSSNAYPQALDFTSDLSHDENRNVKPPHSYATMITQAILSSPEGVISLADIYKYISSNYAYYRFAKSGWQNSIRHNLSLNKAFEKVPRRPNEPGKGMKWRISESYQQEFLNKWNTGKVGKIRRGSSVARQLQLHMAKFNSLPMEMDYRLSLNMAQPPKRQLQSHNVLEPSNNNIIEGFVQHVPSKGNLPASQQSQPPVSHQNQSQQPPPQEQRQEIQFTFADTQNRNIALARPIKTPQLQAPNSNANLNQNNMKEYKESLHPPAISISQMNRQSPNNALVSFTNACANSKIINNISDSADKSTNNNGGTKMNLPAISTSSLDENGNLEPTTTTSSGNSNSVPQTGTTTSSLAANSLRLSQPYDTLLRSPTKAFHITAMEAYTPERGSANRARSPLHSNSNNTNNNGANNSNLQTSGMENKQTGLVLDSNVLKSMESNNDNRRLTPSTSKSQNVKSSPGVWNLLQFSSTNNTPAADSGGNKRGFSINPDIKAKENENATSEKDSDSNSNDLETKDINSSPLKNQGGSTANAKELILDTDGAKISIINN

[4] = biological target: Net1 (Saccharomyces cerevisiae) (UniProt P47035)
[5] = biological target: Sin3 (Saccharomyces cerevisiae) (UniProt P22579)
[6] = biological target: T3, Rck2 (Saccharomyces cerevisiae) (UniProt P38623)
T3 sequence (looked up): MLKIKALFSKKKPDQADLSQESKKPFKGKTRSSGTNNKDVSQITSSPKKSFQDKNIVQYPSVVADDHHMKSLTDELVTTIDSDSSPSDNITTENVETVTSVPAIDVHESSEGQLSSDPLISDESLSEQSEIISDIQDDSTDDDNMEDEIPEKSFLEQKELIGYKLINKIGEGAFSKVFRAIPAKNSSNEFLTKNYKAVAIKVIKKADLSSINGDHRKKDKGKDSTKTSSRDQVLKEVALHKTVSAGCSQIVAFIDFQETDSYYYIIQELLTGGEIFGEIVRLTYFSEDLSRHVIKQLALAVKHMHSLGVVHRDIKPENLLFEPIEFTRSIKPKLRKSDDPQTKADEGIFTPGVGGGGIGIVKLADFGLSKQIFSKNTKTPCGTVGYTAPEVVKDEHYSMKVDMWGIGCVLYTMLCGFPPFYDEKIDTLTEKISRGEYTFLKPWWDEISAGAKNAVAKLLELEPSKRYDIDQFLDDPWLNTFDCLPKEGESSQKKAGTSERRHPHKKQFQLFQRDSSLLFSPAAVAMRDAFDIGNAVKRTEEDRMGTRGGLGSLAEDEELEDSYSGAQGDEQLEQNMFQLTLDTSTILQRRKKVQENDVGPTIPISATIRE

Measured: binding

B1: Fkh1 (protein, Saccharomyces cerevisiae, UniProt P40466 1-484, looked up)
chain: MSVTSREQKFSGKYSSYTAQDRQGLVNAVTCVLSSSSDPVAVSSDYSNSLSIAREVNAYAKIAGCDWTYYVQKLEVTIGRNTDSLNLNAVPGTVVKKNIDIDLGPAKIVSRKHAAIRFNLESGSWELQIFGRNGAKVNFRRIPTGPDSPPTVLQSGCIIDIGGVQMIFILPEQETIISDYCLNHLMPKLLSTYGTNGNNNPLLRNIIEGSTYLREQRLQEEARLQQLDHLHTPLSSSSDVNPIGDPHGDTIMMEEDEEDENYTRGGIRPNTYTSSSNNAVTNGNVPHIENPSDLSLDENRYIKPPQSYASMITQAILSTPEGSISLADIYKFISDNYAFYRFSQMAWQNSVRHNLSLNKAFEKVPKRAGQQGKGMNWKISDEVRRDFLNKWNAGKLSKIRRGASVTRQLQLHMSKFGEIPAPESSSIDPRGIKAQKVKKSLQATSSILGESAPQLQRTQLTGQISTTTSMDVTTNANVNNSSLS
not listed: [6]
binds: all other assays above

B2: Hog1 (protein, Saccharomyces cerevisiae, UniProt P32485 1-435, looked up)
chain: MTTNEEFIRTQIFGTVFEITNRYNDLNPVGMGAFGLVCSATDTLTSQPVAIKKIMKPFSTAVLAKRTYRELKLLKHLRHENLICLQDIFLSPLEDIYFVTELQGTDLHRLLQTRPLEKQFVQYFLYQILRGLKYVHSAGVIHRDLKPSNILINENCDLKICDFGLARIQDPQMTGYVSTRYYRAPEIMLTWQKYDVEVDIWSAGCIFAEMIEGKPLFPGKDHVHQFSIITDLLGSPPKDVINTICSENTLKFVTSLPHRDPIPFSERFKTVEPDAVDLLEKMLVFDPKKRITAADALAHPYSAPYHDPTDEPVADAKFDWHFNDADLPVDTWRVMMYSEILDFHKIGGSDGQIDISATFDDQVAAATAAAAQAQAQAQAQVQLNMAAHSHNGAGTTGNDHSDIAGGNKVSDHVAANDTITDYGNQAIQYANEFQQ
binds: [6]
